Experimental data: paper PMC11696143, “A higher order PUF complex is central to regulation of C. elegans germline stem cells” (Nature Communications, 2024)
These are yes or no findings as the source states them, for the method shown.

Key:
[1] = molecular target: T1, C. elegans FBF-2 RBD (residues 164-575) (C. elegans) (UniProt Q09312); assay: condition: LST-1 100-400 µM titrated into FBF-2 10-30 µM; ITC; LST-1 variant (100-400 µM) titrated from the syringe into the cell with FBF-2 (10-30 µM); 20 °C; 20 mM HEPES pH 7.4, 150 mM NaCl, 0.5 mM TCEP; no RNA; one-site model; apparent constants; two technical replicates; both purified
T1 sequence: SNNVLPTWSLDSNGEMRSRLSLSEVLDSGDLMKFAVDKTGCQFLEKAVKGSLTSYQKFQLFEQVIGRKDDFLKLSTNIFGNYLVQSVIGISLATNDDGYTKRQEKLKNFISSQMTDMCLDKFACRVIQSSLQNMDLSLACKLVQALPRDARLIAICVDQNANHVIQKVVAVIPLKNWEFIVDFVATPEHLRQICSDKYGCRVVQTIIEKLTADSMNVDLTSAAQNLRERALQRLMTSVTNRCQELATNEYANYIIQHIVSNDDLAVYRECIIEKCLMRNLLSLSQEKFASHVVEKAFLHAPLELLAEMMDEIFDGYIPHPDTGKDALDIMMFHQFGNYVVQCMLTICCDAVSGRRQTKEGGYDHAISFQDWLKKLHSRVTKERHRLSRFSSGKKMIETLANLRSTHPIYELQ

[2] = molecular target: T2, C. elegans FBF-2 RBD+CT (residues 164-632) (C. elegans) (UniProt Q09312); assay: as above
T2 sequence: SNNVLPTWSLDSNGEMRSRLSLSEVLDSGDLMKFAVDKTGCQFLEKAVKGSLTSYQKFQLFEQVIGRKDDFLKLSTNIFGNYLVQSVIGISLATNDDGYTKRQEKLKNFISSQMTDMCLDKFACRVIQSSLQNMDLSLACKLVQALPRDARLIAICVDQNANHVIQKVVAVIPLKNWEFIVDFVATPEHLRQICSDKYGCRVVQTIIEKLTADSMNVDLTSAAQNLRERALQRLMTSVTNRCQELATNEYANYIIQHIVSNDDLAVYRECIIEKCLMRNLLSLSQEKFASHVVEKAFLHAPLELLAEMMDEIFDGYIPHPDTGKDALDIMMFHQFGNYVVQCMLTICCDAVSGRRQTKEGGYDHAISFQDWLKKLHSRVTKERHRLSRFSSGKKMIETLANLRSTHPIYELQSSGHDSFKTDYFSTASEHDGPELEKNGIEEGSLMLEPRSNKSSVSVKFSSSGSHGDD

binding [1]: no binding
binding [2]: no binding
B1: LST-1^19–98(A^m B^m): K32A, L35A, K80A, L83A, Y85A (domain or fragment, UniProt P91820 19-98)
chain: STIAYSKSQHEAPAQLAQLRSEIKPLIPLNQPSNFWESSQDSGVLSSLSSSPQQRSGLRSQALHATAIEKNKRVRAMIPQ
